The other results are listed elsewhere or left out. These are further read-outs of the screen, such as a control signal, another cell line or another target. No call is given for them. Compounds called inactive in the main read-out are mostly missing here. The note in brackets gives the kind of curve behind each potency; many fits are weak.

A short description of the assay: qHTS Assay for Lipid Storage Modulators in Drosophila S3 Cells.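 As to cell number change: cells counted by Cell Tracker Red CMTPX staining in the red channel.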 The following applies: BODIPY lipid droplet fluorescence, 18-24 h; for cell number change: measured here: cell count max response, cells fed with added oleic acid. In short, it runs like this:
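Laser-scanning cytometry quantifies lipid droplet accumulation (500–530 nm total intensity; droplet/cell object ratio) in oleic acid-fed (400 uM added) Drosophila S3 cells treated with a concentration series. 20 uM Triacsin C defined 100% inhibition.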

Where [1] appears, read: measured here: lipid fluorescence (Fed channel) AC50, cells fed with added oleic acid.
Setting [2] is: measured here: cell number channel AC50, cells fed with added oleic acid.

For `N#CCNC1CC(=O)N(c2ccccc2)C1=O` (stereo not drawn), the cell number change is 17.9%. Further, the AC50 (as a rule, the concentration at which the activity in the assay is half-maximal) under setting [1] was 29100 nM [rising, single point].

On to `COc1ccc(S(=O)(=O)NCc2ccc(C(=O)N3CCc4ccccc4C3)cc2)cc1`, for which the cell number change was 13.4%. Moreover, under setting [1], the AC50 was 16400 nM [rising, partial curve].

Take `CC(=O)NCCNC(=O)C1CCC(CNc2nc(=S)[nH]c3ccccc23)CC1` (stereo not drawn): the cell number change is -12.6%.

As to `CCOc1ccccc1NC(=O)Cn1nc(-c2ccco2)ccc1=O`, the cell number change is -23.7%.

As to `CC(=O)Oc1cc2c(cc1Cl)C(c1cccs1)CC1(CC(C)(C)NC(=S)N1)O2` (stereo not drawn), the cell number change is -0.482%. For the same compound, under setting [1], the AC50 is 4110 nM [falling, full curve, poor fit].

Regarding `COc1ccc2c(c1)C=C(CN1CCN(C3CCCC3)C(CCO)C1)CO2` (stereo not drawn), the cell number change is -31.2%. The AC50 under setting [2] was 29100 nM [falling, single point]. Moreover, under setting [1], the AC50 is 29100 nM [falling, single point].

As to `CCCCn1c(N)c(N(CC(C)C)C(=O)COC(=O)C2(c3ccccc3)CC2)c(=O)[nH]c1=O`, the cell number change came to 1.97%.

For `O=C(CCS(=O)(=O)c1ccc(Br)cc1)NCCC1=CCCCC1`, the cell number change was -15%. Also, under setting [1], the AC50 is 731 nM [rising, single point].

Consider `CCCC(=O)Nc1nn(C)c2nc3c(C)cccc3cc12`, for which the cell number change was -15%. Also, the AC50 under setting [1] is 58 nM [rising, full curve, poor fit].

For `CCn1cc(Cl)c(C(=O)Nc2ccc3c(c2)OCCO3)n1`, under setting [2], the AC50 is 1640 nM [rising, single point].

As for `COc1ccccc1C(=O)Nc1ccnn1C1CCN(C(C)CSC)CC1` (stereo not drawn), the cell number change was -21.3%. In addition, the AC50 under setting [1] was 29100 nM [falling, single point].

Consider `CC(C)N(C)S(=O)(=O)c1ccc(NC(=O)CSC(=S)N2CCCC2)cc1`, for which the cell number change is -3.24%. For the same compound, under setting [2], the AC50 was 4.61 nM [falling, full curve, poor fit].

As to `NC(N)=Nc1cc2ccccc2c2ccccc12`, the cell number change was -18.9%. In addition, the AC50 under setting [2] was 461 nM [falling, single point].

Turning to `CCN(CC)C(=O)N1CCN(C(=O)N2CCOCC2)CC1`, the cell number change was found to be 10.1%. Also, under setting [1], the AC50 is 5.17 nM [falling, full curve, poor fit].

`Cc1ccc(-c2nnc(-c3cc(C)on3)o2)cc1`: the cell number change is -0.408%. For the same compound, the AC50 under setting [1] was 291 nM [falling, full curve, poor fit].

Turning to `Cc1ccc(OCc2cc(C(=O)NC3CCOC3)no2)cc1C` (stereo not drawn), the cell number change is -9.54%. In addition, the AC50 under setting [1] is 13000 nM [rising, partial curve].

Take `O=C(Cc1ccccc1)NNC(=O)C1CCCC1`: the cell number change is -93.4%. The AC50 under setting [2] was 32600 nM [falling, partial curve, poor fit].

As for `CCn1cc(CCC(=O)NCc2cccc(OC)c2OC)c2ccccc21`, the cell number change is 14.1%. Under setting [2], the AC50 is 651 nM [falling, single point].
